No constants are given. Whether binding was seen depends on the method and setting. In cells and extracts the contact can be indirect. Here binding means that the protein was enriched with, or labelled near, the bait; the list need not be complete. For some assays here: No binding means not detected with the bait. Where a sequence is shown, tags or fusion partners need not be part of it.
Experiments:
[1] = molecular target: T1, tandem affinity-tagged Bicc1-StrepII-HA (Bicc1-SH) (mouse) (UniProt Q99MQ1); assay: affinity purification with mass spectrometry; tandem affinity purification of Bicc1-SH from doxycycline-induced Flp-In T-REx HEK293 extracts (Strep-Tactin Sepharose, elution with desthiobiotin 3X containing 400 mM NaCl, then anti-HA agarose); uninduced cells as control; LC-MS/MS
T1 sequence: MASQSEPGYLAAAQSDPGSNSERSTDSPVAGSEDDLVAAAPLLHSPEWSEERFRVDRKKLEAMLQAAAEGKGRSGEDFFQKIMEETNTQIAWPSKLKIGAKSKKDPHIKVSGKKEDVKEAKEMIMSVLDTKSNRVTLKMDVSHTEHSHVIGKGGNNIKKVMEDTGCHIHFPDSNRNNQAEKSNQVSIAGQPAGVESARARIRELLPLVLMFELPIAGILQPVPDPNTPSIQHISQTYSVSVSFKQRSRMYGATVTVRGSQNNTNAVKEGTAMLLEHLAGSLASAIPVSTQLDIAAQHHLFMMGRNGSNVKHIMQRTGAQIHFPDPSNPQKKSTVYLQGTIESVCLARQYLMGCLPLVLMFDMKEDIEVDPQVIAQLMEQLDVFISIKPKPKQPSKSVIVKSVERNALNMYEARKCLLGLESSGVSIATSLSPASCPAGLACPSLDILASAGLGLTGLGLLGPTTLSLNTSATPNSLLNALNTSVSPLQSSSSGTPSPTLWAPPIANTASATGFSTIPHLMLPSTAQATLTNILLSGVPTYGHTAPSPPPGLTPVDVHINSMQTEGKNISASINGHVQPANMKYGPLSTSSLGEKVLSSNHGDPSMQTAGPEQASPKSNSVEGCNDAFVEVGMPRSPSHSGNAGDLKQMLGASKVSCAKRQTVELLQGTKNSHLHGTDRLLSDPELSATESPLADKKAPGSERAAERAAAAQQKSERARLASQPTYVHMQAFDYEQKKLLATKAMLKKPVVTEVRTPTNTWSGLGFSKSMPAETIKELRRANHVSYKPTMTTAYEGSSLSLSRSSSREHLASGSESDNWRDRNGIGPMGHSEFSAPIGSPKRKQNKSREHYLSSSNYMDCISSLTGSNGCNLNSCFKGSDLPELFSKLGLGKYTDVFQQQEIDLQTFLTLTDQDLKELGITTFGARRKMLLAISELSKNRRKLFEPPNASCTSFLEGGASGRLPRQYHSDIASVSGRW

Chains of the proteins cited; added tags and fusions are not shown.
UniProt Q92600: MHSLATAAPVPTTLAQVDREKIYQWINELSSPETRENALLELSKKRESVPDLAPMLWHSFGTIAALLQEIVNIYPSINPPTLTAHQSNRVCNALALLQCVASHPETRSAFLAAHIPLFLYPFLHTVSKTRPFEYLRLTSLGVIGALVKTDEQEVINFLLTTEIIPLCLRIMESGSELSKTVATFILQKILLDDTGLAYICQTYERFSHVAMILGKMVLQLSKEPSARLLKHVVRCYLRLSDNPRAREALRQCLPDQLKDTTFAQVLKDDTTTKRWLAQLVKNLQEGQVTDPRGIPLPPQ
UniProt Q8IUR7: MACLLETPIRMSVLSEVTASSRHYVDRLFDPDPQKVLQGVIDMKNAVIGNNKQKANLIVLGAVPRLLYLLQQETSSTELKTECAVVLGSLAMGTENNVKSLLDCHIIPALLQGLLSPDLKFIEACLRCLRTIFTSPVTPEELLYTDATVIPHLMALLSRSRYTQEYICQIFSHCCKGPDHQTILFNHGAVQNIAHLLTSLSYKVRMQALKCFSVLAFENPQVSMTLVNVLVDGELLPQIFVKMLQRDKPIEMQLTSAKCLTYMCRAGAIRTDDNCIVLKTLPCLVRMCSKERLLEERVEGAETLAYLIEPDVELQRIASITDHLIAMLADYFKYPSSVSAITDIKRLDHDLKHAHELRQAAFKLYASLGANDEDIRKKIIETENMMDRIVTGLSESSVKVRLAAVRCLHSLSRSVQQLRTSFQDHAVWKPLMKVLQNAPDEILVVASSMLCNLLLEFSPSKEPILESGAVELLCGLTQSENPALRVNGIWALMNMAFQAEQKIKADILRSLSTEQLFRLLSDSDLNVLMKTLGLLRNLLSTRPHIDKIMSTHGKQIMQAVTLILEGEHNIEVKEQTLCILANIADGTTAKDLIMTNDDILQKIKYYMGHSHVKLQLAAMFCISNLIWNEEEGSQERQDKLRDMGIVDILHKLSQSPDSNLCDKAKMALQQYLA
UniProt A5YKK6: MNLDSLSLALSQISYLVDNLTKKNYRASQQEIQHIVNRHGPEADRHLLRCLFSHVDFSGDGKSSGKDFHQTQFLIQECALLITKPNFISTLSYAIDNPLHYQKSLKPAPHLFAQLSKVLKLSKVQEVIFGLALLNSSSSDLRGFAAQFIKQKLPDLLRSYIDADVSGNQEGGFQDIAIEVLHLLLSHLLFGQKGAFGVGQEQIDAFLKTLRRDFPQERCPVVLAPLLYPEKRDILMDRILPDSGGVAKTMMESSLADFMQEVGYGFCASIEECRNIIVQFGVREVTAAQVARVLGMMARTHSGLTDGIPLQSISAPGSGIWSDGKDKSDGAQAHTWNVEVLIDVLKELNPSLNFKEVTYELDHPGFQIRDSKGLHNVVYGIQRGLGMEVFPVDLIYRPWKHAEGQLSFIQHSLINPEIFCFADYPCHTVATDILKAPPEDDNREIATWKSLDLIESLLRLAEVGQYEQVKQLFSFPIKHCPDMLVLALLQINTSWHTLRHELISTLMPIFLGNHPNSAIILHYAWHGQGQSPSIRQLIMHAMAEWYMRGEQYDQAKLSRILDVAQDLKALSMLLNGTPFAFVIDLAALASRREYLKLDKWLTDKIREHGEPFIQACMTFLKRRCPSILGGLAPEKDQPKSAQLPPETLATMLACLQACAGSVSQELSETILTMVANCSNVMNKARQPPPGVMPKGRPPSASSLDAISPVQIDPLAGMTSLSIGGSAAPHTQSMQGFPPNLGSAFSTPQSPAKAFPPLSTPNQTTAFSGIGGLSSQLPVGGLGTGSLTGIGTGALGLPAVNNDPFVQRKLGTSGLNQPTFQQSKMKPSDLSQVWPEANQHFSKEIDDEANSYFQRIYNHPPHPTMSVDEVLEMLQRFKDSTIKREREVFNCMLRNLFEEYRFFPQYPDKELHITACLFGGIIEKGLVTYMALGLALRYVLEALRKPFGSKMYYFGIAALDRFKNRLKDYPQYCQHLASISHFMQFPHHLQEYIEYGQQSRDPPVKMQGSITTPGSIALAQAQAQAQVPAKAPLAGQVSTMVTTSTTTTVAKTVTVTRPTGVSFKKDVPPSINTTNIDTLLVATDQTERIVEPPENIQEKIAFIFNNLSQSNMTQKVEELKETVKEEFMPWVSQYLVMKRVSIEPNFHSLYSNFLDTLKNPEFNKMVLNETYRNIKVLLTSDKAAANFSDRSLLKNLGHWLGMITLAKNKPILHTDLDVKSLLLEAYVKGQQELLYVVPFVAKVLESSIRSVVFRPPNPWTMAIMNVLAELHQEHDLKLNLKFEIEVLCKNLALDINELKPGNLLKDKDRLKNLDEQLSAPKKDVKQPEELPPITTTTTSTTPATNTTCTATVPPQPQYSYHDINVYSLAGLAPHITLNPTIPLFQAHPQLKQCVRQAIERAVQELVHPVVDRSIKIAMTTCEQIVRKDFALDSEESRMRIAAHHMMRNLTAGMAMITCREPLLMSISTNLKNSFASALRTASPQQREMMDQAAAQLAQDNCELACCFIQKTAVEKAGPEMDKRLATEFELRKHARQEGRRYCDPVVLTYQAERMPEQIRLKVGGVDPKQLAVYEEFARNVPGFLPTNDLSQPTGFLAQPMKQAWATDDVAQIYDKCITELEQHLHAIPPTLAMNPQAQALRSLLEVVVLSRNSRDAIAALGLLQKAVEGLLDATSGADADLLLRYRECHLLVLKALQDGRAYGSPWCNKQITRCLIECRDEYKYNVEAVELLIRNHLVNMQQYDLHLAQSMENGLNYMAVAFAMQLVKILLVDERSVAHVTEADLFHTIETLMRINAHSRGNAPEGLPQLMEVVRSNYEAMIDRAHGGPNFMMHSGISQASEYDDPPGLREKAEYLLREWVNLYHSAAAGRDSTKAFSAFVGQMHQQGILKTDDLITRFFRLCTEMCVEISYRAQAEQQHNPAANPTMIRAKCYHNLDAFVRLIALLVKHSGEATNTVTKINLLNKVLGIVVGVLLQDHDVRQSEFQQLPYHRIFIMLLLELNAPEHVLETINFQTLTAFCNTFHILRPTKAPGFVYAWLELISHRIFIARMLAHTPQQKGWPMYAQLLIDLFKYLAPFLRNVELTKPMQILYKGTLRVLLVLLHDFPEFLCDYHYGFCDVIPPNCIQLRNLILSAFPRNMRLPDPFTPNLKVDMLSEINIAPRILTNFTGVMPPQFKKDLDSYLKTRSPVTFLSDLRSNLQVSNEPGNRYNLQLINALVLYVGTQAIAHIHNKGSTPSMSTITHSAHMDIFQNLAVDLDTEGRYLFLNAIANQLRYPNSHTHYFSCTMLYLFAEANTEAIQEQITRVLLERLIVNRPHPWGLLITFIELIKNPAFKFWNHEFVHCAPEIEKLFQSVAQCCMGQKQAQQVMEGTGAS
UniProt Q16531: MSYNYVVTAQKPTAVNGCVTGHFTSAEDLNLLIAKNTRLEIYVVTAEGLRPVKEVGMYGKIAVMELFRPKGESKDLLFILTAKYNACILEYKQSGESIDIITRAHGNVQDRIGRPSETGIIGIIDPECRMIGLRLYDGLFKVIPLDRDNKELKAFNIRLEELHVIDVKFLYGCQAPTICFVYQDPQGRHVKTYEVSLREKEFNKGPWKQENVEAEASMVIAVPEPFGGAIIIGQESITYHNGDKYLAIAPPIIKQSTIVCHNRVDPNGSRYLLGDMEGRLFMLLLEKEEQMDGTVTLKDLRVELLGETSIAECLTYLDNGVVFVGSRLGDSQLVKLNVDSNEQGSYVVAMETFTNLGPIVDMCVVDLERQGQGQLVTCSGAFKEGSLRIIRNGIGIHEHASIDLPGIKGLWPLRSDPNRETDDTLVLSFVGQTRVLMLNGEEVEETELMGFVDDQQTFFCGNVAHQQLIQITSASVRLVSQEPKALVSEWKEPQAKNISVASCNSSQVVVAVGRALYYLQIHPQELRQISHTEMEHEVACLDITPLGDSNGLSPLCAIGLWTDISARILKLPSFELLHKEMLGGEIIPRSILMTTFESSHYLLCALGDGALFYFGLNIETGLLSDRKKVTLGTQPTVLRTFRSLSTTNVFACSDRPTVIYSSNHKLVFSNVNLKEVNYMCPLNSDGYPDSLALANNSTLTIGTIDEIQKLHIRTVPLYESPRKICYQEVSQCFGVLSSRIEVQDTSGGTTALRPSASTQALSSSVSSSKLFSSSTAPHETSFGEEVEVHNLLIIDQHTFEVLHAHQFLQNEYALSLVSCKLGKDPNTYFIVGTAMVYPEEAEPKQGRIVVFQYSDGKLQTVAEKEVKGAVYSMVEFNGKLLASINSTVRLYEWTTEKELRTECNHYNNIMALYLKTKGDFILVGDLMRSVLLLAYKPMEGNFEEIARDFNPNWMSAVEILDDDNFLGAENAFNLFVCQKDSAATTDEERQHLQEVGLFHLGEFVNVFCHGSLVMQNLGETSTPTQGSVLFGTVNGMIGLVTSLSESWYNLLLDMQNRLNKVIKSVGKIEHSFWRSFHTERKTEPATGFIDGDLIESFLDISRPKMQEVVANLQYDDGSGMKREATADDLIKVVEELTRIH

[2] = molecular target: T1, tandem affinity-tagged Bicc1-StrepII-HA (Bicc1-SH) (mouse); assay: affinity purification with mass spectrometry; tandem affinity purification of Bicc1 WT and Bicc1 MutD at lower salt concentrations (30 mM Tris.HCl pH 7.6, 150 mM NaCl, 1 mM MgCl2, 0.05% NP-40; Strep elution with desthiobiotin 2X containing 300 mM); LC-MS/MS
[3] = molecular target: T2, TAP-tagged MmBicc1-D913K915E916/AAA (Bicc1 MutD-SH) (mouse) (UniProt Q99MQ1); assay: as above
T2 sequence: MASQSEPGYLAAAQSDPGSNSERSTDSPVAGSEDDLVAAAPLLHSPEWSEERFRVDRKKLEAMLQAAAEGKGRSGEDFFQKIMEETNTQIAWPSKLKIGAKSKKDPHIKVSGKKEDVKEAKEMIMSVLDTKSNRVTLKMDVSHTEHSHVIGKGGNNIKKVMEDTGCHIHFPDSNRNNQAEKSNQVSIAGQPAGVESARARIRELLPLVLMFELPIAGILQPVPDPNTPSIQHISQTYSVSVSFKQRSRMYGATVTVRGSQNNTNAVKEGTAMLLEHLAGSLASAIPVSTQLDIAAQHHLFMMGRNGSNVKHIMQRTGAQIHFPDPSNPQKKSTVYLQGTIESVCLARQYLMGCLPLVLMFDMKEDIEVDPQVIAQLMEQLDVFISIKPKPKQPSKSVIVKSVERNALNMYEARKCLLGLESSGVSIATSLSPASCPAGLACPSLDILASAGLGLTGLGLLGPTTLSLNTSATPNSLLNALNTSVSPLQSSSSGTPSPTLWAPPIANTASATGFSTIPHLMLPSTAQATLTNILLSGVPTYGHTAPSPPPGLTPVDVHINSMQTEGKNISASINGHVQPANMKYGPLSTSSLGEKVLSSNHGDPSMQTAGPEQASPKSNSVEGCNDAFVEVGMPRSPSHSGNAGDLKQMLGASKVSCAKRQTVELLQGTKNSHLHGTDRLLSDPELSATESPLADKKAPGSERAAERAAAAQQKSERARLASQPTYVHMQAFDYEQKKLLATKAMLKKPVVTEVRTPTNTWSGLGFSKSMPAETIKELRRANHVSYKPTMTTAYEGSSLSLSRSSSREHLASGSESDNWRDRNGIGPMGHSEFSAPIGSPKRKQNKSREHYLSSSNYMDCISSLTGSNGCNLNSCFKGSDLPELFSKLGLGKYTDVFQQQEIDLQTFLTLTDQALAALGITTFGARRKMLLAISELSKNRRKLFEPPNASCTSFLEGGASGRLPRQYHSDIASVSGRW

[4] = molecular target: T3, tandem affinity-tagged Bicc1-StrepII-HA (Bicc1-SH) (mouse), Q99MQ1; assay: affinity purification with mass spectrometry; tandem affinity purification of Bicc1-SH from doxycycline-induced Flp-In T-REx HEK293 extracts (Strep-Tactin Sepharose, elution with desthiobiotin 3X containing 400 mM NaCl, then anti-HA agarose); uninduced cells as control; LC-MS/MS; details: remark: other sources report otherwise
T3 chain: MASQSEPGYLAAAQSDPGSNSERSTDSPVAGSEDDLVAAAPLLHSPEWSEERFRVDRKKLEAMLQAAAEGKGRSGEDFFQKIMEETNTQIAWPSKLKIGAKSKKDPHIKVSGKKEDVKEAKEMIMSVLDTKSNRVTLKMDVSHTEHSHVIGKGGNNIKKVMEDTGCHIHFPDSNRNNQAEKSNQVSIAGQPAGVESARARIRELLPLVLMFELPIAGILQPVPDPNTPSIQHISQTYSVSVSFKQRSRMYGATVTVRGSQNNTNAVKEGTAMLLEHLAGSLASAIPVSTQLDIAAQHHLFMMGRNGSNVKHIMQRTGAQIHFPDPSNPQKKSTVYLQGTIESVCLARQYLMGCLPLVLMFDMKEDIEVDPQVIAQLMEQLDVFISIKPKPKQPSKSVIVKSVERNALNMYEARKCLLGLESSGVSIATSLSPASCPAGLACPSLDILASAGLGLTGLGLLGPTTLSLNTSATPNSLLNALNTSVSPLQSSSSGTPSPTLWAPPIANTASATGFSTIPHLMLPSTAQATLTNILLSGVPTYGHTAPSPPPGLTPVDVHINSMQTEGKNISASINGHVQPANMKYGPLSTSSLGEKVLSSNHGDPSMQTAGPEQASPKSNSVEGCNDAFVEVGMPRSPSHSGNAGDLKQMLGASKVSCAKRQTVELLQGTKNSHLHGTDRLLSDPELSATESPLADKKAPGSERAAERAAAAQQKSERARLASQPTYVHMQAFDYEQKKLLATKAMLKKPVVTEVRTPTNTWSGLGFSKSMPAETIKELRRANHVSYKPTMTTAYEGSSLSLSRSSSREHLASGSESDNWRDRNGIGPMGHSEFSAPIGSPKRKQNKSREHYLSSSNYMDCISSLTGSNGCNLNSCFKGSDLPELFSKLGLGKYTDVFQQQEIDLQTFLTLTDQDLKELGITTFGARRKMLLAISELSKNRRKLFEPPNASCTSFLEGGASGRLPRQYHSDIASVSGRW

For “CCR4-NOT deadenylase subunit NOT-9, endogenous in HEK293 cells (from UniProt Q92600 1-299)”, the binding [1] was “binds”.

“carbamoyl-phosphate synthetase 2, aspartate transcarbamylase, dihydroorotase (CAD), endogenous in HEK293 cells (from UniProt P27708 1-2225) (enzyme)” was tested, and the binding [2] was “binds” and the binding [3] was “binds”.

“Armadillo repeat containing 8 (ARMC8), endogenous in HEK293 cells (from UniProt Q8IUR7 1-673)” was tested, and the binding [3] was “binds”.

In the case of “NOT1 subunit of the CCR4-NOT complex (CNOT1), endogenous in HEK293 cells (from UniProt A5YKK6 1-2376)”, the binding [1] is reported as “binds”.

“CUL4-binding protein DDB1, endogenous in HEK293 cells (from UniProt Q16531 1-1140)” was tested, and the binding [1] was “binds”.

B1: GID4 (formerly C17orf39), endogenous in HEK293 cells (protein, UniProt Q8IVV7 1-300)
chain: MCARGQVGRGTQLRTGRPCSQVPGSRWRPERLLRRQRAGGRPSRPHPARARPGLSLPATLLGSRAAAAVPLPLPPALAPGDPAMPVRTECPPPAGASAASAASLIPPPPINTQQPGVATSLLYSGSKFRGHQKSKGNSYDVEVVLQHVDTGNSYLCGYLKIKGLTEEYPTLTTFFEGEIISKKHPFLTRKWDADEDVDRKHWGKFLAFYQYAKSFNSDDFDYEELKNGDYVFMRWKEQFLVPDHTIKDISGASFAGFYYICFQKSAASIEGYYYHRSSEWYQSLNLTHVPEHSAPIYEFR
For B1, the binding [1] was “no binding”.

B2: ANKS6, endogenous in HEK293 cells, Q68DC2 1-871 (protein)
chain: MGEGGLPPAFQLLLRACDQGDTETARRLLEPGAAEPAERGAEPEAGAEPAGAEVAGPGAAAAGAVGAPVPVDCSDEAGNTALQFAAAGGHEPLVRFLLRRGASVNSRNHYGWSALMQAARFGHVSVAHLLLDHGADVNAQNRLGASVLTVASRGGHLGVVKLLLEAGAFVDHHHPSGEQLGLGGSRDEPLDITALMAAIQHGHEAVVRLLMEWGADPNHAARTVGWSPLMLAALTGRLGVAQQLVEKGANPDHLSVLEKTAFEVALDCKHRDLVDYLDPLTTVRPKTDEEKRRPDIFHALKMGNFQLVKEIADEDPSHVNLVNGDGATPLMLAAVTGQLALVQLLVERHADVDKQDSVHGWTALMQATYHGNKEIVKYLLNQGADVTLRAKNGYTAFDLVMLLNDPDTELVRLLASVCMQVNKDKGRPSHQPPLPHSKVRQPWSIPVLPDDKGGLKSWWNRMSNRFRKLKLMQTLPRGLSSNQPLPFSDEPEPALDSTMRAAPQDKTSRSALPDAAPVTKDNGPGSTRGEKEDTLLTTMLRNGAPLTRLPSDKLKAVIPPFLPPSSFELWSSDRSRTRHNGKADPMKTALPQRASRGHPVGGGGTDTTPVRPVKFPSLPRSPASSANSGNFNHSPHSSGGSSGVGVSRHGGELLNRSGGSIDNVLSQIAAQRKKAAGLLEQKPSHRSSPVGPAPGSSPSELPASPAGGSAPVGKKLETSKRPPSGTSTTSKSTSPTLTPSPSPKGHTAESSVSSSSSHRQSKSSGGSSSGTITDEDELTGILKKLSLEKYQPIFEEQEVDMEAFLTLTDGDLKELGIKTDGSRQQILAAISELNAGKGRERQILQETIHNFHSSFESSASNTRAPGNSPCA
With B2 the binding [4] was “no binding”.
